# Test results published in the supplement of paper PMC7666118.
# Chains of the proteins cited; added tags and fusions are not shown. Lines headed by an entry give the natural chain unless they say otherwise; changes in a name come on top.
# UniProt Q14435: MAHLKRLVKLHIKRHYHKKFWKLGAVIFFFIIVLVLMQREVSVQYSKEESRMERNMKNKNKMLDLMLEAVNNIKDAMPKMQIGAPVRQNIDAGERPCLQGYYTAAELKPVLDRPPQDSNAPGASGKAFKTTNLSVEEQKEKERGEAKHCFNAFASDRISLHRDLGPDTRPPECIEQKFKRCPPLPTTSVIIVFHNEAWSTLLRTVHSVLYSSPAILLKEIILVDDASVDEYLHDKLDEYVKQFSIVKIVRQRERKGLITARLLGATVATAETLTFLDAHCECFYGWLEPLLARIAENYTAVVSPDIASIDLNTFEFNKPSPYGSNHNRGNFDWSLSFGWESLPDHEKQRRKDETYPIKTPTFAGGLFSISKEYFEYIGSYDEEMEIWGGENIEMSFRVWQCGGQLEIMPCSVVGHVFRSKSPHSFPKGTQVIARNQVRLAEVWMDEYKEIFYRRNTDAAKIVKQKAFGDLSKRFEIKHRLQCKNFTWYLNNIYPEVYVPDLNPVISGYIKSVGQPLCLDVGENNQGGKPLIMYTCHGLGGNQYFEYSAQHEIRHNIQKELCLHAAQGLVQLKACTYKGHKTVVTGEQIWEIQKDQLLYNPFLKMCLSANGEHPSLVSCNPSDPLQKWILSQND
# UniProt Q9H6L5: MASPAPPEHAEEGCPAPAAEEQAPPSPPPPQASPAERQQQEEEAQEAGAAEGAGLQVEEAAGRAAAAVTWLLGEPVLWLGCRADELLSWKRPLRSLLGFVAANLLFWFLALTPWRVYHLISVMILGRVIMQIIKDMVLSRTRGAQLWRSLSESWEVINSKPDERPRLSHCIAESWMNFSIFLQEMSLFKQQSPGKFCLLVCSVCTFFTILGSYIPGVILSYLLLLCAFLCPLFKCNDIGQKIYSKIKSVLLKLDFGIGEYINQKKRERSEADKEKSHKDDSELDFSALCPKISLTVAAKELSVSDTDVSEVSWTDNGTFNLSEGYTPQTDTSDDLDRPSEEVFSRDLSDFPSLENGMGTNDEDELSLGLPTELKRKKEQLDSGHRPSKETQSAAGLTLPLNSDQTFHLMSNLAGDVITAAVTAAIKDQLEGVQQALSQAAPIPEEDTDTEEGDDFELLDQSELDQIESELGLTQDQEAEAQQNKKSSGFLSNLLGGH
# UniProt Q9BYC5: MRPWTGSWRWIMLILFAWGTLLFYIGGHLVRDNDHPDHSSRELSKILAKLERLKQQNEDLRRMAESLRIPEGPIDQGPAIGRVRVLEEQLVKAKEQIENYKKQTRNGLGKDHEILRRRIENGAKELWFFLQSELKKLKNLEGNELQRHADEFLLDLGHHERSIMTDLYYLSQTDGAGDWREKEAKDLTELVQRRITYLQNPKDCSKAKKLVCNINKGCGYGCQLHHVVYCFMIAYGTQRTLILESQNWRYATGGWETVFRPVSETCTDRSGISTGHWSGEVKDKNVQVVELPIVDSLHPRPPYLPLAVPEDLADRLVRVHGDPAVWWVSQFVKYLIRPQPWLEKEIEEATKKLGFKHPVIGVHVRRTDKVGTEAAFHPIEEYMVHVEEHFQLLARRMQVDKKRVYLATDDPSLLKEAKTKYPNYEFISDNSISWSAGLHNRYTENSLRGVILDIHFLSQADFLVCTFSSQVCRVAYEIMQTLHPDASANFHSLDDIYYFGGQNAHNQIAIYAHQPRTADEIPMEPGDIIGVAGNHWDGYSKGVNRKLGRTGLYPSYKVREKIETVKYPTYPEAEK
# UniProt Q00688: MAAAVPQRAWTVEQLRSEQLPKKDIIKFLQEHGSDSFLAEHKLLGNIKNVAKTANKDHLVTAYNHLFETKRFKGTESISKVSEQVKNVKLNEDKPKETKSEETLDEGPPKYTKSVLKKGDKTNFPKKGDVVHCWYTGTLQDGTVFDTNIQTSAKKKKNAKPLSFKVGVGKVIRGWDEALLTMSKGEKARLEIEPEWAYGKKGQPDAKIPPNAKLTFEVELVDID
# UniProt Q9NVH0: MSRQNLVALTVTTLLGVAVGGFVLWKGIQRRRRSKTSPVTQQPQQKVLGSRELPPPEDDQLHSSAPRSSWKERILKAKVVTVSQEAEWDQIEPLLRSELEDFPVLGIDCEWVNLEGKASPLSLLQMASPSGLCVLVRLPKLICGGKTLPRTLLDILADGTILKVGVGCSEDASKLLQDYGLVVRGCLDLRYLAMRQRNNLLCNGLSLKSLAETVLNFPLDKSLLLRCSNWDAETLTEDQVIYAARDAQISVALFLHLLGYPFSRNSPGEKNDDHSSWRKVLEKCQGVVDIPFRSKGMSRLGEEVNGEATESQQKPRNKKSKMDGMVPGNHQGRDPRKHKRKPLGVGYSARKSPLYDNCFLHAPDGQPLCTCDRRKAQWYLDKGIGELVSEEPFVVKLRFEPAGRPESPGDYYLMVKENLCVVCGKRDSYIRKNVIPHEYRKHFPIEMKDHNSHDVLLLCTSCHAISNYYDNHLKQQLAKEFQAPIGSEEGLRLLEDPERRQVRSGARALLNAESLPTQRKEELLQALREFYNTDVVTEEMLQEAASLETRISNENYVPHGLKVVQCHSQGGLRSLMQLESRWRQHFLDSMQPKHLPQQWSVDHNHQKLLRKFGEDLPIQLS
# UniProt P38117: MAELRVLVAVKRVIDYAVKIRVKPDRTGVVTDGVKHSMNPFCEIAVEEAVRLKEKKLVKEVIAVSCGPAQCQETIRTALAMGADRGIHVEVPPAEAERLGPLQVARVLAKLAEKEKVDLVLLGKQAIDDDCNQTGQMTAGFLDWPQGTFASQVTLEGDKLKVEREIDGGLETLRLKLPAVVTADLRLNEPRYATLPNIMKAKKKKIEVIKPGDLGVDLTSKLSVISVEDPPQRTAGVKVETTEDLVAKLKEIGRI
# UniProt Q9Y680: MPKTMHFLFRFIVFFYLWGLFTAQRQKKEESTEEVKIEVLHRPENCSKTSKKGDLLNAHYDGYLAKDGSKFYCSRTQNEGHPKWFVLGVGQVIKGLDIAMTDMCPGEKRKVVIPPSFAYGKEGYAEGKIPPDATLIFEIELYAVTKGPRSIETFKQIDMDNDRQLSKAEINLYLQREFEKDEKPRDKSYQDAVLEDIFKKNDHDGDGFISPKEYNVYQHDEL
# UniProt O75369, whole entry: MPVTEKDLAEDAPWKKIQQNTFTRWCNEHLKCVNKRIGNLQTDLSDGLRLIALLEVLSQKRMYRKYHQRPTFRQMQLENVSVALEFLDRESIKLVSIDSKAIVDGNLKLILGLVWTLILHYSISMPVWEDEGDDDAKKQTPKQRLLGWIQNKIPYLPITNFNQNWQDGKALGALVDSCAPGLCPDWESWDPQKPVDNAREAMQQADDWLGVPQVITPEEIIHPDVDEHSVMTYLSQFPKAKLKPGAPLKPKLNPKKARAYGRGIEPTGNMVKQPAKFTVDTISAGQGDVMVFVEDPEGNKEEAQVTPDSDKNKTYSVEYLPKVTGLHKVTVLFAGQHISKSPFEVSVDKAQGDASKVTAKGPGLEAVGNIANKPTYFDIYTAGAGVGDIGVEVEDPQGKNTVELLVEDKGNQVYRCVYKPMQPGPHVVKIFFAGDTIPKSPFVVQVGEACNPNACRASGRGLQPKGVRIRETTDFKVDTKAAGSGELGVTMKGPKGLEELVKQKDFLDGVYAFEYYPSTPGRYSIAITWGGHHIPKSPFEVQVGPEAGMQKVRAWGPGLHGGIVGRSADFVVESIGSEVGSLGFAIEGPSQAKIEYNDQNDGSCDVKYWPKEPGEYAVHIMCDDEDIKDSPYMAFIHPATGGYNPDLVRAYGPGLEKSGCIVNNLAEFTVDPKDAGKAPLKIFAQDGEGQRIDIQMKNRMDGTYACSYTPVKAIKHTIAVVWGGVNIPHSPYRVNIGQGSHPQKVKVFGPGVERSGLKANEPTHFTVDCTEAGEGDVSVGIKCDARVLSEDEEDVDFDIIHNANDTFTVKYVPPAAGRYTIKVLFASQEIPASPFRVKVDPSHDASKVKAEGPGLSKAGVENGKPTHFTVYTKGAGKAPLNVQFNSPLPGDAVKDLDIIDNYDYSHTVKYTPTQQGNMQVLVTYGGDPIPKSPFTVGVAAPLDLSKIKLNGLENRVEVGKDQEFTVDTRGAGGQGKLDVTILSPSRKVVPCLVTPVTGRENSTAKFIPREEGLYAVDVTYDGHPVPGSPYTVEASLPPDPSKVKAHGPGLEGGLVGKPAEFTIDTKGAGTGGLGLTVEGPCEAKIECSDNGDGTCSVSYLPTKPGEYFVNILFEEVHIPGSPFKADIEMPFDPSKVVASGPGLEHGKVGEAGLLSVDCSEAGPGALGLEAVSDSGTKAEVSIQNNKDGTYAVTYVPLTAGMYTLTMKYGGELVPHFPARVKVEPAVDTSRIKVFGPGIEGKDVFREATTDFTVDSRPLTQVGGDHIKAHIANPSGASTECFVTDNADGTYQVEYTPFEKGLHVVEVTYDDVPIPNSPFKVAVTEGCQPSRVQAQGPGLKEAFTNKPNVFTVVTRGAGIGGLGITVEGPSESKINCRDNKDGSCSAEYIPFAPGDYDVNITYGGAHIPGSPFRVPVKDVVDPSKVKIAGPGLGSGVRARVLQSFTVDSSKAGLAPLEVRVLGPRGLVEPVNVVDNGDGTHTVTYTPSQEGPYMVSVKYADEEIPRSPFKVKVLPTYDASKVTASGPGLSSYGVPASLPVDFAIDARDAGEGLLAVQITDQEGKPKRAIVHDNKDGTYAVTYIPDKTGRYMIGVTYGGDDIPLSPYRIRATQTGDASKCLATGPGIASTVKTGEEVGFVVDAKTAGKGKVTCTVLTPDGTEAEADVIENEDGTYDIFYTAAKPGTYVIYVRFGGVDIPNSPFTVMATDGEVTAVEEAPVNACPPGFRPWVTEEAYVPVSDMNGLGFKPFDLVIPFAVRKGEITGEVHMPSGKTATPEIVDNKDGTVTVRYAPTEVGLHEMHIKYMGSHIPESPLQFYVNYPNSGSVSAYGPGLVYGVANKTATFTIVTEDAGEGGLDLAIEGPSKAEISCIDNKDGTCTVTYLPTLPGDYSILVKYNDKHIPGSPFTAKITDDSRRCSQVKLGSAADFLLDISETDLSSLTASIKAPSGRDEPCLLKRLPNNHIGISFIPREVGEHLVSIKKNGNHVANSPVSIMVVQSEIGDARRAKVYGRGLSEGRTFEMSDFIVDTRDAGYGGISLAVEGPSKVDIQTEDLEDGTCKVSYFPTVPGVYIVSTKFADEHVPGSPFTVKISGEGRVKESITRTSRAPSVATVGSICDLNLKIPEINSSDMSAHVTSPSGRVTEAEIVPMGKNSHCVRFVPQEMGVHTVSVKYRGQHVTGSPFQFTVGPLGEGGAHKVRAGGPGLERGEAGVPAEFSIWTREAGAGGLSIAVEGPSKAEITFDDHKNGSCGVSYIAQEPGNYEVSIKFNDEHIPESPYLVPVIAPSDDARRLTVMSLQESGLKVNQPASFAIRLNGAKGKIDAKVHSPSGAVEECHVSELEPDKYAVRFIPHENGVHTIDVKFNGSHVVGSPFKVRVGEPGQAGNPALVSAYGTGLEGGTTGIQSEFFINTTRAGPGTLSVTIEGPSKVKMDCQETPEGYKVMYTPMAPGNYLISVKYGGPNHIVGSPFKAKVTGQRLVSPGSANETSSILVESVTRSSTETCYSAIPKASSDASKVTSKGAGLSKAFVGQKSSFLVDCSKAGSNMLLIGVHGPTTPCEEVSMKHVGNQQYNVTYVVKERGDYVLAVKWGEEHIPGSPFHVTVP
# UniProt Q14697: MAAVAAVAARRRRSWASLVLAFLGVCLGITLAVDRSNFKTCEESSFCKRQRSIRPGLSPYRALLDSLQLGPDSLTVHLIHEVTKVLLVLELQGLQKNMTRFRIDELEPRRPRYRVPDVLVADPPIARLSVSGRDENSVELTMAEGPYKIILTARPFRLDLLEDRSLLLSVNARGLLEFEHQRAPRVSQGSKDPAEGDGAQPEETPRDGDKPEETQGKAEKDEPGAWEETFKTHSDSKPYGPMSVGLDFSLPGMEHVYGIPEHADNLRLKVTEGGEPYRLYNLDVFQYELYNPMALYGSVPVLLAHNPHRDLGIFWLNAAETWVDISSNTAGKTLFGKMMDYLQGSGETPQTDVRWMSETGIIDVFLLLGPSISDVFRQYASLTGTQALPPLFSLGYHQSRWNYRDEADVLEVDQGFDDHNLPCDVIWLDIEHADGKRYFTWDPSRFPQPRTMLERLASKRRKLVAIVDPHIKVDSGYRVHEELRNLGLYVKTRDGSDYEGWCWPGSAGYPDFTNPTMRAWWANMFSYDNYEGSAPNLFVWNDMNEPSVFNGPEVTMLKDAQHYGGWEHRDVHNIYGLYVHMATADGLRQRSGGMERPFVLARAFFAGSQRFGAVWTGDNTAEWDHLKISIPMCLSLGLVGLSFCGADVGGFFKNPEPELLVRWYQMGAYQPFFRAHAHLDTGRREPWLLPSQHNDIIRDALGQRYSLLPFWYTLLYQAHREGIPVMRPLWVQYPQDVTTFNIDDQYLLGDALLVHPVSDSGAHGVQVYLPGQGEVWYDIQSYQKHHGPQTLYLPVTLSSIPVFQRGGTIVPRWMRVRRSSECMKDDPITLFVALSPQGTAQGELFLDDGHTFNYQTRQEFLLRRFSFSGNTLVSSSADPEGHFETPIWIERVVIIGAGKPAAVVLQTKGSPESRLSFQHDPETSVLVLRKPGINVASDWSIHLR
# The list shows a part of the results.
# Compound: COc1ccc(Cn2ccc3ccc(C(=O)NO)cc32)cc1
# Assay: dose-dependent thermal stabilisation call (2D-TPP, DLPTP, 10% FDR) (binary (1 = stabilised)); higher = stabilised by the compound
# Details: system: HL-60 intact cells; concentration range 0.04-10 µM
row,Target,dose-dependent thermal stabilisation call
1,GAPDH (UniProt P04406),inactive: 0
2,FIBP (UniProt O43427),inactive: 0
3,FTSJ3 (UniProt Q8IY81),inactive: 0
4,GALNT3 (UniProt Q14435),inactive: 0
5,EXOG (UniProt Q9Y2C4),inactive: 0
6,FAM134B (UniProt Q9H6L5),inactive: 0
7,EXOSC6 (UniProt Q5RKV6),inactive: 0
8,FAM134C (UniProt Q86VR2),inactive: 0
9,GBA (UniProt P04062),inactive: 0
10,FTSJD2 (UniProt Q8N1G2),inactive: 0
11,ESPL1 (UniProt Q14674),inactive: 0
12,FUT8 (UniProt Q9BYC5),inactive: 0
13,GATAD2A (UniProt Q86YP4),inactive: 0
14,FECH (UniProt P22830),inactive: 0
15,FKBP3 (UniProt Q00688),inactive: 0
16,EXDL2 (UniProt Q9NVH0),inactive: 0
17,ETFB (UniProt P38117),inactive: 0
18,FKBP7 (UniProt Q9Y680),inactive: 0
19,FAM117A (UniProt Q9C073),inactive: 0

row,Target,dose-dependent thermal stabilisation call
1,FBXL20 (UniProt Q96IG2),inactive: 0
2,FAM173B (UniProt Q6P4H8),inactive: 0
3,FUT4 (UniProt P22083),inactive: 0
4,FBXO22 (UniProt Q8NEZ5),inactive: 0
5,FAM175A (UniProt Q6UWZ7),inactive: 0
6,FIP1L1 (UniProt Q6UN15),inactive: 0
7,FAM45A (UniProt Q8TCE6),inactive: 0
8,FLNB (UniProt O75369),inactive: 0
9,GANAB (UniProt Q14697),inactive: 0
10,FUK (UniProt Q8N0W3),inactive: 0
11,FAM98B (UniProt Q52LJ0),inactive: 0
12,GALNT6 (UniProt Q8NCL4),inactive: 0
13,GAN (UniProt Q9H2C0),inactive: 0
14,GALK2 (UniProt Q01415),inactive: 0
15,GBAS (UniProt O75323),inactive: 0
16,F13A1 (UniProt P00488),inactive: 0
17,EZR (UniProt P15311),inactive: 0
18,FAM105B (UniProt Q96BN8),inactive: 0
19,FKBP2 (UniProt P26885),inactive: 0

# Three records drawn at random from those above:
row,Target,dose-dependent thermal stabilisation call
9,GANAB (UniProt Q14697),inactive: 0
12,FUT8 (UniProt Q9BYC5),inactive: 0
5,FAM175A (UniProt Q6UWZ7),inactive: 0
